Experimental data published in patent publication US8586547B2, “CDC45L peptides and vaccines including the same” (Oncotherapy Science, Inc., priority 2009, dated 2013).
At least one peptide structure holds a part that was inferred or is arguable (an end, a ring closure or a residue). Some compounds share one wording; it may come from a single statement. Where a SMILES comes first, the peptide text is derived from it.

Assays:
[1] = Immunization of BALB/c mice with peptides emulsified in incomplete Freund adjuvant; type: in vivo; settings: data not shown
[2] = system: C1R-A2402 cells pulsed with CDC45L derived peptides; assay: IFN-gamma ELISPOT assay of CTL lines re-stimulated with peptide-pulsed C1R-A2402 cells; type: cell-based, human
[3] = system: C1R-A2402 cells pulsed with CDC45L derived peptides; settings: healthy donor-4 and -5
[4] = system: T2 cells pulsed with the peptide; assay: IFN-gamma ELISPOT assay of CTLs re-stimulated with peptide-pulsed T2 cells; type: cell-based, human; settings: CTL lines from HLA-A2 (A*0201) positive healthy donor
[5] = CTL lines from HLA-A24 positive healthy donors, C1R-A2402 cells pulsed with the peptide vs irrelevant HIV-A24 peptide, effector-to-target 10:1
[6] = CTL lines from PBMCs of HLA-A24 positive lung cancer patients
[7] = CTL lines from two HLA-A24 positive healthy donors (donor-4, -5) induced with mixture of three peptides, re-stimulated with single peptide-pulsed C1R-A2402

With `CC[C@H](C)[C@H](NC(=O)[C@H](CCC(N)=O)NC(=O)[C@@H](NC(=O)[C@H](CC(=O)O)NC(=O)[C@H](CC(N)=O)NC(=O)[C@H](Cc1ccc(O)cc1)NC(=O)[C@@H](N)C(C)C)[C@@H](C)O)C(=O)N[C@@H](CCCCN)C(=O)N[C@@H](CC(C)C)C(=O)O` [CDC45L-A24-9-109-2] (H-VYNDTQIKL-OH) the “induction of epitope-specific CTLs in immunized mice” value (shortened to “induction of epitope-specific CTLs”) [1] was “could induce epitope-specific CTLs”, the “IFN-gamma production by CTL lines (IFN-gamma ELISPOT)” value (“IFN-gamma production by CTL lines” below) [2, 5] was “large amount of IFN-gamma” and the “IFN-gamma production by CTL lines” value [2, 6] was “significantly large amount of IFN-gamma”. The “IFN-gamma production by CTL lines” value [2, 7] was “produced IFN-gamma specifically” and the “specific lysis of peptide-pulsed C1R-A2402 by CTL lines induced with the peptide mixture” value (from here on “specific lysis”) [3] was “exhibited specific lysis”.
For `CC(C)C[C@H](NC(=O)[C@H](CCCCN)NC(=O)[C@H](Cc1ccccc1)NC(=O)[C@H](CCCNC(=N)N)NC(=O)[C@H](C)NC(=O)[C@H](C)NC(=O)[C@@H](NC(=O)[C@H](Cc1ccc(O)cc1)NC(=O)[C@@H](N)CO)[C@@H](C)O)C(=O)O` [CDC45L-A24-9-294-3] (H-SYTAARFKL-OH), the “induction of epitope-specific CTLs” value [1] was “could induce epitope-specific CTLs”, the “IFN-gamma production by CTL lines” value [2, 5] was “large amount of IFN-gamma” and the “IFN-gamma production by CTL lines” value [2, 6] was “significantly large amount of IFN-gamma”. The “IFN-gamma production by CTL lines” value [2, 7] was “except for the CDC45L-A24-9-294-3 (SEQ ID NO: 3) peptide in healthy donor-5” and the “specific lysis” value [3] was “not against”.
For `CC(C)C[C@H](NC(=O)[C@H](Cc1ccccc1)NC(=O)[C@@H](N)CCCCN)C(=O)N[C@@H](C)C(=O)N[C@@H](CO)C(=O)N[C@@H](CC(=O)O)C(=O)N[C@H](C(=O)N[C@H](C(=O)N[C@@H](Cc1ccccc1)C(=O)O)C(C)C)C(C)C` [CDC45L-A24-9-370-7] (H-KFLASDVVF-OH), the “IFN-gamma production by CTL lines” value [2, 5] was “large amount of IFN-gamma” and the “IFN-gamma production by CTL lines” value [2, 6] was “significantly large amount of IFN-gamma”.
In the case of `CC[C@H](C)[C@H](NC(=O)[C@H](CC(C)C)NC(=O)[C@H](C)NC(=O)[C@H](CC(=O)O)NC(=O)[C@H](CC(C)C)NC(=O)[C@H](Cc1ccccc1)NC(=O)[C@@H](N)CCCCN)C(=O)N[C@@H](CO)C(=O)N[C@@H](CC(C)C)C(=O)O` [CDC45L-A24-9-556-4] (H-KFLDALISL-OH), the “IFN-gamma production by CTL lines” value [4] is reported as “produced IFN-gamma specifically”, the “induction of epitope-specific CTLs” value [1] is reported as “could induce epitope-specific CTLs” and the “IFN-gamma production by CTL lines” value [2, 5] is reported as “large amount of IFN-gamma”. The “IFN-gamma production by CTL lines” value [2, 6] was “significantly large amount of IFN-gamma”, the “IFN-gamma production by CTL lines” value [2, 7] was “produced IFN-gamma specifically” and the “specific lysis” value [3] was “not against”.
In the case of `CC[C@H](C)[C@H](NC(=O)[C@H](CC(C)C)NC(=O)[C@H](C)NC(=O)[C@H](CC(=O)O)NC(=O)[C@H](CC(C)C)NC(=O)[C@H](Cc1ccccc1)NC(=O)[C@@H](N)CCCCN)C(=O)N[C@@H](CO)C(=O)N[C@@H](CC(C)C)C(=O)N[C@@H](CC(C)C)C(=O)O` [CDC45L-A24-10-556-12] (H-KFLDALISLL-OH), the “IFN-gamma production by CTL lines” value [2, 5] is reported as “large amount of IFN-gamma” and the “IFN-gamma production by CTL lines” value [2, 6] is reported as “significantly large amount of IFN-gamma”.
